Results deposited as PubChem BioAssay AID686943 (Drosophila RNAi Screening Center, 2013).
The screen tested about 23,000 reagents; shown is an unselected part of those that have a named target and a result. 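Extra replicates exist only for a retested subset of genes; insulin dose and duration not given; both raised and lowered dpERK matter.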 The numbers tell different reagents against one gene apart. A plus sign joins genes that one reagent is predicted to hit. Further read-outs or replicates are left out here. The record does not give: the amount of reagent, the time to read-out.

Test: 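Knockdowns that increase or decrease active ERK after insulin receptor stimulation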 (primary screen)
Cells: Drosophila S2R+ haemocyte-like cells expressing YFP-tagged ERK (Rolled)
Knock-down reagent: long dsRNA against Drosophila genes
Challenge: insulin stimulation versus unstimulated cells; dose and duration not given
Measurement: 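Per-plate z-scores of phospho-ERK immunostaining normalised to YFP-tagged ERK, measured with and without insulin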
Direction: replicate 1, z-score of dpERK with insulin: higher = more active ERK per ERK-YFP after insulin

The first 3 records, to show the layout:
Alp13 (Alkaline phosphatase 13) | replicate 1, z-score of dpERK with insulin = 0.65
CG14204 | replicate 1, z-score of dpERK with insulin = -0.19
kug (kugelei) | replicate 1, z-score of dpERK with insulin = 0.25

Main list, from the first entry:
Alp13 (Alkaline phosphatase 13) | replicate 1, z-score of dpERK with insulin = 0.65
CG14204 | replicate 1, z-score of dpERK with insulin = -0.19
kug (kugelei) | replicate 1, z-score of dpERK with insulin = 0.25
CG30412 | replicate 1, z-score of dpERK with insulin = 0.32
CG12702 | replicate 1, z-score of dpERK with insulin = 0.17
Jon65Aiii (Jonah 65Aiii) | replicate 1, z-score of dpERK with insulin = -0.06
CG5024 | replicate 1, z-score of dpERK with insulin = -0.41
GILT3 (Gamma-interferon-inducible lysosomal thiol reductase 3) | replicate 1, z-score of dpERK with insulin = 0.08
CG3330 | replicate 1, z-score of dpERK with insulin = 0.57
DIP-iota (Dpr-interacting protein iota) | replicate 1, z-score of dpERK with insulin = -0.6
CG15530 | replicate 1, z-score of dpERK with insulin = 0.76
tea (telomere ends associated) #1 | replicate 1, z-score of dpERK with insulin = -0.27
tea (telomere ends associated) #2 | replicate 1, z-score of dpERK with insulin = 0.23
CG4101 | replicate 1, z-score of dpERK with insulin = 0.75
Usp7 (Ubiquitin-specific protease 7) #1 | replicate 1, z-score of dpERK with insulin = 0.27
Usp7 (Ubiquitin-specific protease 7) #2 | replicate 1, z-score of dpERK with insulin = 0.35
CG2336 | replicate 1, z-score of dpERK with insulin = 0.86
CG5516 #1 | replicate 1, z-score of dpERK with insulin = 1.7
CG5516 #2 | replicate 1, z-score of dpERK with insulin = -0.62
nAChRbeta3 (nicotinic Acetylcholine Receptor beta3) | replicate 1, z-score of dpERK with insulin = -0.32
peo (pendolino) | replicate 1, z-score of dpERK with insulin = 0.78
snu (snustorr) | replicate 1, z-score of dpERK with insulin = -0.15
CG17272 | replicate 1, z-score of dpERK with insulin = -0.98
acj6 (abnormal chemosensory jump 6) | replicate 1, z-score of dpERK with insulin = 0.43
CG34282 | replicate 1, z-score of dpERK with insulin = -0.12
CG31360 | replicate 1, z-score of dpERK with insulin = 0.12
E(z) (Enhancer of zeste) | replicate 1, z-score of dpERK with insulin = -0.53
CG14926 | replicate 1, z-score of dpERK with insulin = 1.01
kraken | replicate 1, z-score of dpERK with insulin = -0.22
Mvk + CG33672 + spt4 #1 | replicate 1, z-score of dpERK with insulin = 0.53
Mvk + CG33672 + spt4 #2 | replicate 1, z-score of dpERK with insulin = -1.48
